PubChem BioAssay AID686938 – Drosophila RNAi Screening Center, 2013
Aim: 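Knock-downs reducing store-operated calcium influx in Drosophila cells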 (primary screen). Cells: Drosophila S2R+ cells. Knock-down reagent: long dsRNA against Drosophila genes, about 0.25 µg dsRNA per well, roughly 10,000 cells. Timing: 5 days of knock-down before the calcium assay. Treatment: thapsigargin (SERCA pump blocker) to empty calcium stores; entry signal taken 4 min after adding it. Detection: 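Duplicate raw fluo-4 intensities per well from a plate reader, at rest and four minutes after thapsigargin emptied calcium stores; entry-to-rest ratio filled for only some wells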. Direction: calcium entry signal: higher = stronger calcium signal after store depletion; entry to resting ratio: higher = more calcium entry relative to resting level; resting calcium signal: higher = higher resting calcium signal. Call rule: 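Called when the plate z-score of the entry-to-rest ratio, mean of duplicates, falls below −3; wells with low overall dye signal (Fmax z below −2) or more than five off-targets excluded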. Calls: active = strongly reduced calcium entry; inactive = no strong reduction.
The screen tested about 23,000 reagents; this is a random part of those that have a named target and a result. In the full data, 75 (0.33%) are marked active. 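Raw plate signals without normalisation; calls rest on plate z-scores that were not deposited; ratio present for only 364 wells.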 A plus sign joins genes that one reagent is predicted to hit. Not stated in the record: the dose of the treatment.

no.	gene knocked down	PubChem SID	calcium entry signal, replicate 1 (fluorescence units)	calcium entry signal, replicate 2 (fluorescence units)	entry to resting ratio	resting calcium signal, replicate 1 (fluorescence units)	resting calcium signal, replicate 2 (fluorescence units)	outcome
1	Andorra	SID104199267	4.16e7	3.79e7		2.14e7	1.72e7	inactive
2	Achl	SID104186457	2.53e7	3.12e7		1.29e7	1.35e7	inactive
3	CG13193	SID104186110	4.03e7	3.80e7		2.07e7	1.80e7	inactive
4	fzr2	SID104184072	3.38e7			1.80e7		inactive
5	aly	SID104188499	4.01e7	4.32e7		2.20e7	2.05e7	inactive
6	aly	SID104201445	3.37e7	4.03e7		1.86e7	1.91e7	inactive
7	CG31142	SID104193439	3.18e7	3.61e7		1.53e7	1.86e7	inactive
8	lncRNA:CR30055	SID104201910	3.24e7	3.67e7		1.77e7	1.57e7	inactive
9	Noa36	SID104196553	5.58e7	5.58e7		2.32e7	2.61e7	inactive
10	CG43295	SID104189208	3.66e7	3.85e7		1.65e7	1.83e7	inactive
11	CG34045	SID104185579	3.16e7	5.02e7		1.41e7	2.28e7	inactive
12	poe	SID104183385	3.71e7			2.36e7		inactive
13	park + Targ3	SID104191409	3.94e7	4.51e7		1.73e7	3.05e7	inactive
14	CG17801	SID104195065	3.36e7	2.65e7		3.99e7	1.25e7	inactive
15	alphaTub84B	SID104192414	2.23e7	2.86e7		1.34e7	1.97e7	inactive
16	CG10801	SID104197553	3.21e7	6.55e7	2.1	1.50e7	2.64e7	inactive
17	CG11414	SID104183902	3.88e7			1.91e7		inactive
18	CG31248	SID104202102	3.29e7	3.42e7		1.83e7	1.54e7	inactive
19	hbt	SID104181102	4.89e7	7.91e7		2.05e7	2.76e7	inactive
20	hbt	SID104182341	2.73e7	1.60e7		1.35e7	8.33e6	inactive
21	bocks	SID104196281	3.07e7	4.69e7		1.36e7	1.96e7	inactive
22	puc	SID104196826	4.63e7	6.37e7		2.03e7	2.91e7	inactive
23	AnxB10	SID104200469	3.33e7	3.26e7		2.10e7	1.62e7	inactive
24	CG33494	SID104193507	2.51e7	3.59e7		1.33e7	1.82e7	inactive
25	CG6280	SID104186764	3.95e7	3.92e7		1.96e7	1.82e7	inactive
26	CG13375	SID104198413	4.12e7	5.55e7	2.2	1.84e7	2.22e7	inactive
27	Wnt4	SID104180768	2.67e7	3.67e7		1.64e7	1.68e7	inactive
28	Wnt4	SID104183269	3.88e7	3.16e7		1.92e7	1.54e7	inactive
29	CG17782	SID104195059	3.76e7	5.71e7		2.06e7	2.42e7	inactive
30	CG17782	SID104202584	3.64e7	3.96e7		1.70e7	1.73e7	inactive
31	CG5062	SID104198177	3.54e7	3.10e7		1.79e7	1.58e7	inactive
32	mRF1	SID104182672	4.62e7			2.42e7		inactive
33	Gpo3	SID104181770	4.35e7	3.36e7		1.93e7	1.34e7	inactive
34	CG4686	SID104195414	3.78e7	4.46e7		5.66e7	2.03e7	inactive
35	CG17760	SID104186486	3.54e7	4.60e7		1.71e7	1.98e7	inactive
36	gd	SID104200128	4.55e7	5.55e7		2.20e7	2.57e7	inactive
37	CG3092	SID104184128	3.80e7			1.88e7		inactive
38	CG14118	SID104189914	2.73e7	4.39e7		1.54e7	1.83e7	inactive
39	DopEcR	SID104188321	4.42e7	4.01e7		3.01e7	1.74e7	inactive
40	CG1529	SID104200307	4.15e7	4.30e7		2.08e7	2.21e7	inactive
41	CG4393	SID104195365	4.52e7	5.17e7		2.39e7	1.95e7	inactive
42	CG31784	SID104181366	2.54e7	4.39e7		1.46e7	2.01e7	inactive
43	CG10845	SID104194064	3.44e7	4.40e7		1.74e7	1.85e7	inactive
44	ND-30	SID104188035	3.62e7	2.88e7		2.29e7	1.07e7	inactive
45	Dop1R2	SID104193750	3.91e7	4.78e7		1.85e7	2.28e7	inactive
46	Dop1R2	SID104195171	3.17e7	4.60e7		1.65e7	2.04e7	inactive
47	CG2528	SID104183516	3.02e7	4.29e7		1.51e7	1.83e7	inactive
48	CG8155	SID104186876	2.26e7	2.17e7		1.09e7	1.01e7	inactive
49	CG8155	SID104201260	3.85e7	3.71e7		2.43e7	1.81e7	inactive
50	CG5916	SID104195709	2.89e7	2.41e7		1.39e7	1.14e7	inactive
51	bys	SID104198540	3.11e7	2.89e7		1.63e7	1.56e7	inactive
52	CG32100	SID104189517	3.39e7	4.62e7		1.83e7	2.14e7	inactive
53	CG32100	SID104190123	3.32e7	4.74e7		1.80e7	2.18e7	inactive
54	Mhcl	SID104192922	2.33e7	2.30e7		1.09e7	1.04e7	inactive
55	Mhcl	SID104194008	3.89e7	4.95e7		1.75e7	7.34e7	inactive
56	Mhcl	SID104196545	3.34e7	5.27e7		1.65e7	6.48e7	inactive
57	Snx27	SID104197578	3.16e7	4.73e7		1.68e7	2.22e7	inactive
58	Snx27	SID104198074	3.17e7	4.79e7		1.63e7	2.43e7	inactive
59	Snx27	SID104198076	3.04e7	5.04e7		1.60e7	2.35e7	inactive

As entered above.
For “resting calcium signal, replicate 1 (fluorescence units)”, CG13193 [SID104186110] shows 2.07e7
park + Targ3 [SID104191409], resting calcium signal, replicate 1 (fluorescence units): 1.73e7
For “outcome”, CG43295 [SID104189208] has inactive
Value for CG17782 [SID104195059] under “resting calcium signal, replicate 1 (fluorescence units)”: 2.06e7
Entry for Achl [SID104186457] under “calcium entry signal, replicate 2 (fluorescence units)”: 3.12e7
Value for Mhcl [SID104194008] in “resting calcium signal, replicate 2 (fluorescence units)”: 7.34e7
